Results are given in words; binding and its absence hold for the method and conditions named. Some results given as binding are weak or reduced against the parent protein; the word gives no strength. Sequences can lack the tags named with a protein.

Amino acid sequences for entries named in this document (tags omitted). A change or cut given only in a name is not applied to a line headed by its entry. Residues count along the entry.
UniProt P10747, residues 19-152: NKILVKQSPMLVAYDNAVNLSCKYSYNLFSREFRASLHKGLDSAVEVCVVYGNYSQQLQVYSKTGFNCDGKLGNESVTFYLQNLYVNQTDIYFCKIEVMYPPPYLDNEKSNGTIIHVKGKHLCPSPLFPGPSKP
UniProt Q15116, residues 25-167: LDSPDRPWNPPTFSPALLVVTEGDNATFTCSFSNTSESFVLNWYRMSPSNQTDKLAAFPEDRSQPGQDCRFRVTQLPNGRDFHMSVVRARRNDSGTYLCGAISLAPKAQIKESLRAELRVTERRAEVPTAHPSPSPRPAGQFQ

The target of assay [1] is Recombinant human CD28 (bio-techne, reference 342-CD-200) (human) (UniProt P10747). Put plainly: MSD: biotinylated recombinant human CD28 immobilized on streptavidin coated plate, detection with anti-human Fc antibody coupled to SulfoTag.
The target in assay [2] is Recombinant human PD-1 (Sino Biologicals, reference 10377-H08H) (human) (UniProt Q15116). Put plainly: ELISA: recombinant human PD-1 immobilized, anti-human Fc-peroxidase, TMB, 450 nm; normalized to anti-PD-1*1 at 20 nM = 100%; N=2 [panel 'Monovalent Anti PD-1']. For orientation: In an ELISA, binding on a coated surface is turned into a signal by an enzyme label.
Assay [3] concerns the target Recombinant human CD28 (bio-techne, reference 342-CD-200) (human) (UniProt P10747). Put plainly: MSD binding assay, recombinant human CD28 immobilized (FIG. 6C).
The target in assay [4] is Biotinylated human PD-1 (AcroBiosystems, reference EP-101) (human) (UniProt Q15116). Put plainly: competitive ELISA: recombinant human PD-L1 immobilized, antibody mixed with a fixed concentration of biotinylated human PD-1, streptavidin-peroxidase; % = 100-((DO450*100)/DO450 no Ab); N=2; blocked ligand PD-L1.
Assay [5] addresses Recombinant human PD-1 (Sino Biologicals, reference 10377-H08H) (human) (UniProt Q15116). Put plainly: ELISA, recombinant human PD-1 coated (FIG. 6A).
The target is the same in assay [6]. Put plainly: ELISA: recombinant human PD-1 immobilized, anti-human Fc-peroxidase, TMB, 450 nm; normalized to anti-PD-1*2 at 20 nM = 100%; N=2 [panel 'Bivalent Anti PD-1'].

B1: anti-PD-1/anti-CD28 multifunctional molecule Format A1 (monovalent anti-PD-1 Fab fused to a monovalent anti-CD28 Fab CrossMAb, clone 1) (bispecific antibody, V domains shown)
VH 1: QIQLVQSGSELKKPGASVKVSCKASGYTFTHYAMNWVRQAPGQGLEWMGWINTNTGEPTYAQGFTGRFVFSLDTSVSTAYLQISSLKAEDTAVYYCAREREPGMDNWGQGTLVTVSS
VL 1: DVVMTQSPLSLPVTLGQPASISCRSSQSLVHANTNTYLEWYQQRPGQSPRLLIYKVSNRFSGVPDRFSGSGSGTDFTLKISRVEAEDVGVYYCFQGTHVPNTFGQGTKLEIK
VH 2: QVKLQESGPGLVAPSQSLSITCTVSGFSLTSYGVYWVRQPPGKGLEWLGVIWAGGSTNYNSALMSRLSISKDNSKSQVFLKMNSLQTDDTAMYYCARDHYGSYGDYYAMDYWGQGTTVTVSS
VL 2: DIVLTQSPASLAVSLGQRATISCRASESVEYYDTSLMQWYQQKPGQPPKLLIYAASSVESGVPARFSGSGSGTDFSLNIHPVEEDDIAMYFCQQSRKVPWTFGGGTKLEIK
Take B1: the binding entry in assay [1], in assay [2], in assay [3], in assay [4] and in assay [5] was “binds” each time.

B2: anti-PD-1/anti-CD28 multifunctional molecule Format C2 (bivalent anti-PD-1 antibody fused to an anti-CD28 scFv, clone 1) (bispecific antibody, V domains shown)
VH 1: QIQLVQSGSELKKPGASVKVSCKASGYTFTHYAMNWVRQAPGQGLEWMGWINTNTGEPTYAQGFTGRFVFSLDTSVSTAYLQISSLKAEDTAVYYCAREREPGMDNWGQGTLVTVSS
VL 1: DVVMTQSPLSLPVTLGQPASISCRSSQSLVHANTNTYLEWYQQRPGQSPRLLIYKVSNRFSGVPDRFSGSGSGTDFTLKISRVEAEDVGVYYCFQGTHVPNTFGQGTKLEIK
VH 2: QVKLQESGPGLVAPSQSLSITCTVSGFSLTSYGVYWVRQPPGKGLEWLGVIWAGGSTNYNSALMSRLSISKDNSKSQVFLKMNSLQTDDTAMYYCARDHYGSYGDYYAMDYWGQGTTVTVSS
VL 2: DIVLTQSPASLAVSLGQRATISCRASESVEYYDTSLMQWYQQKPGQPPKLLIYAASSVESGVPARFSGSGSGTDFSLNIHPVEEDDIAMYFCQQSRKVPWTFGGGTKLEIK
Turning to B2, the binding entry in assay [4], in assay [6] and in assay [5] was “binds” each time.

B3: anti-PD-1/anti-CD28 multifunctional molecule Format C5 (scFv anti-CD28 fused to C-terminal of bivalent anti-PD1, clone 1) (bispecific antibody, V domains shown)
VH 1: QIQLVQSGSELKKPGASVKVSCKASGYTFTHYAMNWVRQAPGQGLEWMGWINTNTGEPTYAQGFTGRFVFSLDTSVSTAYLQISSLKAEDTAVYYCAREREPGMDNWGQGTLVTVSS
VL 1: DVVMTQSPLSLPVTLGQPASISCRSSQSLVHANTNTYLEWYQQRPGQSPRLLIYKVSNRFSGVPDRFSGSGSGTDFTLKISRVEAEDVGVYYCFQGTHVPNTFGQGTKLEIK
VH 2: QVKLQESGPGLVAPSQSLSITCTVSGFSLTSYGVYWVRQPPGKGLEWLGVIWAGGSTNYNSALMSRLSISKDNSKSQVFLKMNSLQTDDTAMYYCARDHYGSYGDYYAMDYWGQGTTVTVSS
VL 2: DIVLTQSPASLAVSLGQRATISCRASESVEYYDTSLMQWYQQKPGQPPKLLIYAASSVESGVPARFSGSGSGTDFSLNIHPVEEDDIAMYFCQQSRKVPWTFGGGTKLEIK
As to B3, the binding result in assay [4] is listed as “binds”.

B4: anti-PD-1/anti-CD28 multifunctional molecule Format C1 (bivalent anti-PD-1 antibody fused to an anti-CD28 scFv, clone 1) (bispecific antibody, V domains shown)
VH 1: QIQLVQSGSELKKPGASVKVSCKASGYTFTHYAMNWVRQAPGQGLEWMGWINTNTGEPTYAQGFTGRFVFSLDTSVSTAYLQISSLKAEDTAVYYCAREREPGMDNWGQGTLVTVSS
VL 1: DVVMTQSPLSLPVTLGQPASISCRSSQSLVHANTNTYLEWYQQRPGQSPRLLIYKVSNRFSGVPDRFSGSGSGTDFTLKISRVEAEDVGVYYCFQGTHVPNTFGQGTKLEIK
VH 2: QVKLQESGPGLVAPSQSLSITCTVSGFSLTSYGVYWVRQPPGKGLEWLGVIWAGGSTNYNSALMSRLSISKDNSKSQVFLKMNSLQTDDTAMYYCARDHYGSYGDYYAMDYWGQGTTVTVSS
VL 2: DIVLTQSPASLAVSLGQRATISCRASESVEYYDTSLMQWYQQKPGQPPKLLIYAASSVESGVPARFSGSGSGTDFSLNIHPVEEDDIAMYFCQQSRKVPWTFGGGTKLEIK
Regarding B4, the binding entry in assay [4], in assay [6] and in assay [5] was “binds” each time.

B5: anti-PD-1/anti-CD28 multifunctional molecule Format B3 (scFv anti-CD28 fused to C-terminal of monovalent anti-PD1, clone 1) (bispecific antibody, V domains shown)
VH 1: QIQLVQSGSELKKPGASVKVSCKASGYTFTHYAMNWVRQAPGQGLEWMGWINTNTGEPTYAQGFTGRFVFSLDTSVSTAYLQISSLKAEDTAVYYCAREREPGMDNWGQGTLVTVSS
VL 1: DVVMTQSPLSLPVTLGQPASISCRSSQSLVHANTNTYLEWYQQRPGQSPRLLIYKVSNRFSGVPDRFSGSGSGTDFTLKISRVEAEDVGVYYCFQGTHVPNTFGQGTKLEIK
VH 2: QVKLQESGPGLVAPSQSLSITCTVSGFSLTSYGVYWVRQPPGKGLEWLGVIWAGGSTNYNSALMSRLSISKDNSKSQVFLKMNSLQTDDTAMYYCARDHYGSYGDYYAMDYWGQGTTVTVSS
VL 2: DIVLTQSPASLAVSLGQRATISCRASESVEYYDTSLMQWYQQKPGQPPKLLIYAASSVESGVPARFSGSGSGTDFSLNIHPVEEDDIAMYFCQQSRKVPWTFGGGTKLEIK
With B5, the binding result in assay [4] is listed as “binds”.

The values are drawn from US20260049141A1.
